PubChem BioAssay AID602196 | INSERM, 2012
Screen: 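Genes whose knock-down alters cisplatin killing of lung cancer cells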. System: human A549 lung cancer cells. Reagents: siRNA pair against human genes. Timing: 48 h transfection before cisplatin; time from cisplatin to read-out not stated. Challenge: cisplatin at a dose killing half of control-siRNA cells; exact dose and duration not given. Measurement: 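Cisplatin cell death as a shift from the 50% death seen with control siRNA; siRNAs toxic or growth-blocking alone scored 0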. Scale: two-siRNA summed score (-2 to +2): higher = both siRNAs protect from cisplatin killing; -2 means both sensitise. Call rule: 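Each siRNA scores 0 if harmful alone by LDH or WST-1, otherwise +1 if it reduces and -1 if it increases cisplatin killing; a gene is active when both siRNAs agree (sum +2 or -2)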. Meaning of the calls: active = both siRNAs shift cisplatin killing the same way; inactive = no consistent shift, or siRNA harmful alone.
This is one part, drawn at random, of about 23,000 reagents tested. Over the whole deposit, 455 (2%) got an active call. 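Active includes both protection and sensitisation; some change values fall well beyond the stated -50 to +50 range.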 The numbers tell different reagents against one gene apart. Further read-outs or replicates are left out here. Not stated in the record: the amount of reagent.

two-siRNA summed score (-2 to +2), by target gene and reagent
GATC: #1 0 inactive
RAB11FIP4: #1 0 inactive
CYSLTR2: #1 1 inactive
ZNF354C: #1 0 inactive
ERI2: #1 0 inactive
SERPINE1: #1 0 inactive
INSRR: #1 0 inactive
JAK2: #1 -1 inactive
LOC389372: #1 0 inactive
KCNK9: #1 0 inactive
LOC441239: #1 0 inactive
NES: #1 0 inactive
LOC139604: #1 1 inactive
HCAR2: #1 1 inactive
FBXO3: #1 0 inactive
SLC12A3: #1 0 inactive
MMP17: #1 0 inactive
MGC26484: #1 1 inactive
FBXO25: #1 1 inactive
NSL1: #1 0 inactive
USP47: #1 -1 inactive
SPATA31E1: #1 0 inactive
PAN3: #1 0 inactive
ZNF20: #1 1 inactive
ZGRF1: #1 0 inactive; #2 0 inactive
EPB41L4B: #1 0 inactive
LYZL4: #1 0 inactive
SUDS3P1: #1 0 inactive
OR52E6: #1 0 inactive
KIF3C: #1 0 inactive
CCL4: #1 0 inactive
ZNF500: #1 0 inactive

9 neighbouring reagents already listed, quoted:
two-siRNA summed score (-2 to +2), by target gene and reagent
KCNK9: #1 0 inactive
LOC441239: #1 0 inactive
NES: #1 0 inactive
LOC139604: #1 1 inactive
HCAR2: #1 1 inactive
FBXO3: #1 0 inactive
SLC12A3: #1 0 inactive
MMP17: #1 0 inactive
MGC26484: #1 1 inactive

Continued.
two-siRNA summed score (-2 to +2), by target gene and reagent
TMEM86B: #1 0 inactive
CD164: #1 0 inactive
S1PR2: #1 0 inactive
ZSWIM3: #1 0 inactive
LOC442276: #1 0 inactive
EDIL3: #1 0 inactive
NMT2: #1 -1 inactive
ABHD1: #1 0 inactive
ZC3H13: #1 1 inactive
H2AZ1: #1 0 inactive
ARHGAP27: #1 -1 inactive
TRIM23: #1 1 inactive
EMG1: #1 1 inactive
PGS1: #1 0 inactive
LOC441519: #1 0 inactive
POLR2K: #1 0 inactive
SELENOO: #1 0 inactive
ATP2C2: #1 0 inactive
LOC440360: #1 1 inactive
FAM170A: #1 0 inactive
SCGB1D4: #1 0 inactive
AXIN1: #1 0 inactive
STYXL1: #1 0 inactive
LOC442219: #1 2 active
